Test results: paper doi:10.1101/2020.05.28.121053
These are yes or no findings as the source states them, for the method shown. For some assays here: Binding calls can cover weak binding; strength is not graded here.

How the values were obtained:
[1] = target: mbGIPC PDZ domain (Monosiga brevicollis GIPC homologue, original construct) (Monosiga brevicollis); test: fluorescence polarisation
[2] = target: mbSHANK1 PDZ domain (Monosiga brevicollis SHANK1 homologue) (Monosiga brevicollis); test: crystal structure

binding [1] | binding [2] | Binder
no binding (tested: 1 mM) | – | VEPKKSFDEI [decameric peptide matching the final 10 residues of the mbGIPC_(SFDEI) construct]
– | binds | LPPPESESKV (fluoresceinated (F*)) [fluoresceinated peptide matching the C-terminus of GIRK3]
